# Experimental data reported in the supplement of paper PMC12067093, “Discovery and optimisation of a covalent ligand for TRIM25 and its application to targeted protein ubiquitination” (Chemical Science, 2025).
# The list shows a part of the results.
# Molecular target: T1, PPIL2_Q13356_103_YHCPVLFTVFTNNTHIVAVR (UniProt Q13356)
# T1 sequence (whole entry): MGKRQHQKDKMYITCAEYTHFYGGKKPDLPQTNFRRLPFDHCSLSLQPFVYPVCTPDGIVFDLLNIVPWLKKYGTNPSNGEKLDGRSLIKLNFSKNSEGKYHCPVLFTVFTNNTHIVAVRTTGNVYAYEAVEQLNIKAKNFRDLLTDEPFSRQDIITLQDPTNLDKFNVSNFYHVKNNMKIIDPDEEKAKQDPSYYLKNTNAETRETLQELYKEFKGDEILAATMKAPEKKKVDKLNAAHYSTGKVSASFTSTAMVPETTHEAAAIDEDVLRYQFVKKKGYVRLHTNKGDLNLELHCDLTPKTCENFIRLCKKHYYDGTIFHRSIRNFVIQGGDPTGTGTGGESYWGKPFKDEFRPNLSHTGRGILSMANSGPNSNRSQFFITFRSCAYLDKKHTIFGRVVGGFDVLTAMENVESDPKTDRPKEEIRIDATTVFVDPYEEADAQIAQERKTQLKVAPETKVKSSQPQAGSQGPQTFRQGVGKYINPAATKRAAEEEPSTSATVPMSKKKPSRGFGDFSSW
# Experiment: probe-labelled cysteine peptide fold change vs DMSO (competition) (log2 fold change); higher = less target engagement (more negative = stronger competition)
# Details: THP-1, incubation time: 4 h
# 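Further: competitive chemoproteomic profiling in live THP-1 cells with an iodoacetamide desthiobiotin (IA-DTB) probe, comparing probe-labelled peptide intensities in compound-treated cells against DMSO-treated controls.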
structure (smiles),measurement,setting,value
CC1Cc2ccccc2N1C(=O)C1CCCN(C(=O)CCl)C1 (mixture of isomers) [TRIM25 ligand 11 (diastereomer mixture)],probe-labelled cysteine peptide fold change,10 µM,-0.115
same,probe-labelled cysteine peptide fold change,50 µM,-0.134
